Patent US20200079851A1
Results are given in words; binding and its absence hold for the method and conditions named. Some binding calls cover weakened binding; strength is not graded here.

By UniProt entry, the sequences of proteins in these tests, tags left out. Residues count along the entry.
UniProt Q8N423, residues 22-458: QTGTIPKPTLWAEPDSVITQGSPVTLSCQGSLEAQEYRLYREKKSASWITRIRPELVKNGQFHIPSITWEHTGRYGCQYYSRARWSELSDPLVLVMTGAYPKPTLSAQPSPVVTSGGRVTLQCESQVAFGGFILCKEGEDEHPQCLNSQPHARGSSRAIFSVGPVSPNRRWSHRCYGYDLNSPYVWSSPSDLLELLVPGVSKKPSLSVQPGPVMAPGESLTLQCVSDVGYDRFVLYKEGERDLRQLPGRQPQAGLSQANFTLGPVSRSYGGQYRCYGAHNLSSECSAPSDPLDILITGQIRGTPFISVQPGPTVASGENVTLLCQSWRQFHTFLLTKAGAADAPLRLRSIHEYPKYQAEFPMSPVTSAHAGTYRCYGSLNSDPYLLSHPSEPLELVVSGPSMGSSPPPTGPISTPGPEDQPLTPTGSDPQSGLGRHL

T1: D2-SR-M2(139-235)
T1 sequence: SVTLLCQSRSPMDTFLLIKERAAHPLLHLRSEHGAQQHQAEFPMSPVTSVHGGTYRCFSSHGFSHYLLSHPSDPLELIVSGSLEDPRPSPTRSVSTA

B1: anti-LILRB4 rabbit monoclonal antibody #139 (antibody, V domains shown)
VH: EQSLEESGGRLVTPGTPLTLTCTVSGFSLNSYAMAWVRQAPGKGLEWIGIIGLSTMTYYASWVNGRFTISKTSTTVDLKMTSLTTEDTATYFCVRNDVYWAFNLWGQGTLVTVSS
VL: ELDLTQTPSSVSAGVGGTVSISCQSSESVVNNHALSWYQQKPGQPPKLLIYKASTLASGVPSRFSGSGSGAQFTLTISGVQCDDAATYYCQGGFYSGISDYPFGGGTEVEIK
B2: anti-LILRB4 rabbit monoclonal antibody #216-2 (antibody, V domains shown)
VH: EQSLKESGGRLVTPGTPLTLTCTVSGIDLSSYAMTWVRQVPGKGLEYIGFINIVGIAGYATWAKGRFTISKTSTTVDLKVTSPTTEDTATYFCARNWIRLDLWGQGTLVTVSS
VL: ELVMTQTPASVSAAVGGTVTISCQSSESLYKKNYLSWFQQKPGQPPKLLIYEASKLASGVPSRFSGSGSGTQFTLTISDVQCDDAASYYCLGDYTNGRDTTFGGGTEVEIK
B3: anti-LILRB4 rabbit monoclonal antibody #8 (antibody, V domains shown)
VH: QSVKESGGGLVTPGGTLTLTCTASGFSLISYDMYWVRQAPGKGLEYIGIIYSDGYTFYATGAKGRITISRTSTTVDLKITSPTTEDTATYFCATNAFALWGQGTLVTISS
VL: ELDLTQTPSSVSAAVGGTVTISCQSSQNVYNNNWLVWLQQKPGQPPKRLIYTASSLASGVPSRFAGSGSATQFTLTISDLECGDAATYYCAGGYSGPIYTFGGGTEVEIK
B4: anti-LILRB mAb C290 (antibody, V domains shown)
VH: EVQLLQSGPELVKPGASVKISCRTSGYTFTEYTMHWVKQSHGKSLEWIGGINTNNGGTSYNQKFKGKATLTVDKSSSTAYMELRSLTSEDSAVYYCARDKRSRGELDSTMDYWGQGTSVTVSS
VL: DIVMTQAAPSVPVTPGESVSISCRSSKSLLHSNGNTYLYWFLQRPGQSPQLLIYRMSNLASGVPDRFSGSGSGTAFTLRISRVEAEDVGVYYCMQHLEYPFTFGSGTMLEIK
B5: anti-LILRB4 mAb C84 (antibody, V domains shown)
VH: QIQLVQSGPELKKPGETVKISCKASGYTFTNYGMNWVKQAPGKGLKWMGWINTYTGEPTYADDFKGRFAFSLETSASTAYLQINNLKNEDMATYFCASIYYHTSLWYFDVWGAGTTVTVSS
VL: DVLMTQTPLSLPVSLGDQASISCRSSQNIVHSNGNTYLEWYLQKPGQSPKLLIYRVSNRFSGVPVRFSGSGSGTDFTLKISRVEAEDLGVYYCFQGSHVPLTFGAGTKLELK
B6: anti-LILRB4 mAb C201 (antibody, V domains shown)
VH: DVQLQESGPGLVKPSQSLSLTCTVTGYSITSDYAWNWIRQFPGNKLEWMGYISYSGGTSYNPSLKSRISITRDTSKNQFFLQLNSVTTEDTATYYCARLHYGYDYWGLGTTLTVSS
VL: DVLMTQTPLSLPVSLGDQASISCRSSQSIVHSNGNTYLEWYLQKPGQSPKLLIYKVSNRFSGVPDRFSGSGSGTDFTLKISRVEAEDLGVYYCFQGLHVPPTFGGGTKLEIK

Assays:
D2-SR-M1(139-259) [1] = assay: ELISA, mAb titrated on D2-SR-M1(139-259)
D2-SR-M2(139-235) [2] = molecular target: T1, D2-SR-M2(139-235); assay: ELISA, mAb titrated on D2-SR-M2(139-235)
D2-SR-M15(139-219) [3] = assay: ELISA, mAb titrated on D2-SR-M15(139-219)
D2-SR-M1(139-259) [4] = assay: ELISA, one bar for each antigen, antibody concentration not given
D2-SR-M15(139-219) [5] = assay: as above
D2-SR-M2(139-235) [6] = molecular target: T1, D2-SR-M2(139-235); assay: as above
D2-SR-M16(210-259) [7] = assay: ELISA, mAb titrated on D2-SR-M16(210-259)
D2-SR-M16(210-259) [8] = assay: ELISA, one bar for each antigen, antibody concentration not given
LILRB2 (human) = LILRB2 (human) (UniProt Q8N423); assay: reactivity table, assay not named on the sheet

| Binder | binding (D2-SR-M1(139-259) [1]) | binding (D2-SR-M1(139-259) [4]) | binding (D2-SR-M16(210-259) [7]) | binding (D2-SR-M16(210-259) [8]) | binding (LILRB2 (human)) | further results |
| --- | --- | --- | --- | --- | --- | --- |
| B1 | binds | binds | – | – | – | binding (D2-SR-M2(139-235) [2]): binds; binding (D2-SR-M15(139-219) [3]): binds; binding (D2-SR-M15(139-219) [5]): binds; binding (D2-SR-M2(139-235) [6]): binds |
| B2 | binds | binds | binds | binds | – | – |
| B3 | binds | binds | binds | binds | – | – |
| B4 | – | – | – | – | binds | – |
| B5 | – | – | – | – | binds | – |
| B6 | – | – | – | – | binds | – |
